Reference: the supplement of paper PMC12889115
Some of the results follow. Values are raw readings; no control value is given beside them.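 In the initial screen, polymyxin B was used at a concentration that permeabilizes Salmonella's outer membrane but not its inner membrane. Maximum growth was set by DMSO wells with or without polymyxin B. Since plates varied, data were ranked per plate, and compounds giving the lowest OD600 advanced as hits.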

System: Salmonella enterica serovar Typhimurium SL1344
Experiment: bacterial growth OD600 after 18 h with compound and polymyxin B; higher = more bacterial growth (less inhibition)
Details: 50 µM, Mueller-Hinton broth

Row | SMILES | bacterial growth OD600 (polymyxin B 0.75 µg/mL) | bacterial growth OD600 (polymyxin B 1 µg/mL)
1 | COCc1nc2cc(NC(=O)Cc3ccccc3)cc(C(=O)NC(C)Cc3cccnc3)c2n1C (stereo not given) | 0.826 | –
2 | COC(=O)CCC(=O)N1CCCC(C(=O)Nc2ccc(-c3cccc(F)c3)cc2)C1 (stereo not given) | – | 1.1
3 | COc1ccc(CC2(CCC(=O)NCC(C)(C)CO)CCC(=O)N2)c2ccccc12 (stereo not given) | 0.769 | –
4 | COc1ccc(CN2CC[C@@H](N3CCCCCC3)[C@H](O)C2)cc1C | 0.763 | –
5 | CC(C)N(C)c1ccc(C(=O)N2CCCCC2CCn2cccn2)cn1 (stereo not given) | – | 0.017
6 | CCC(C)CNC(=O)C1CCN(c2nc(C)c3ccc(S(C)(=O)=O)cc3n2)CC1 (stereo not given) | 0.866 | –
7 | COc1cccc(-c2nn(-c3ccccc3)cc2CNCC2(C)COC2)c1 | – | 0.893
8 | CCc1ccc(CN(C)C(=O)CCC2(Cc3ccc(C)cc3)CCC(=O)N2)cc1 (stereo not given) | 0.029 | –
9 | Cc1cccc(CNC(=O)C2CC23CCN(C(=O)c2cc(F)cc(F)c2)CC3)n1 (stereo not given) | 0.879 | –
10 | Cc1cccc(C2CCCN(C(=O)CCC3(Cc4ccc(Cl)cc4)CCC(=O)N3)C2)c1 (stereo not given) | 0.032 | –
11 | O=C(CCn1cccn1)N1CCC(C2CCN(Cc3cccnc3)CC2)C1 (stereo not given) | – | 0.929
12 | O=C(c1coc(COc2cccc3cnccc23)n1)N1CC[C@@H]2CCCC[C@H]2C1 | – | 0.001
13 | NC(=O)CCC(=O)N1CCCC1C(=O)Nc1cccc(-c2ccc(F)cc2)c1 (stereo not given) | – | 0.896
14 | CCN(Cc1ccncc1)C(=O)c1cc(COc2c(C)cccc2C)on1 | – | 0.894
15 | CCOC(=O)N1CCN(c2nc3nonc3nc2N2CCCCCC2)CC1 | – | 1.03
16 | COC(=O)[C@@H]1CCCN1C(=O)Cc1ccc(N2CCC(NCc3nonc3C)CC2)cc1 | 0.837 | –
17 | Cc1nn(C)c(Cl)c1CN1CCOc2ccc(C(O)Cc3ccccc3)cc2C1 (stereo not given) | 0.897 | –
18 | COC(c1ccc2c(c1)CN(C(=O)c1cccc(Cn3cccn3)c1)CCO2)C1CCCCC1 (stereo not given) | 0.028 | –
19 | CCOC(=O)C1(Cc2ccccc2)CCCN(Cc2ccc(NC(C)=O)cc2)C1 (stereo not given) | – | 0.015
20 | CC(=O)c1cccc(OCc2cc(C(=O)N3CCCCC3CO)n[nH]2)c1 (stereo not given) | – | 0.936
21 | Cc1occc1C(=O)Nc1cnn(CC(=O)N2CCc3c([nH]c4ccccc34)C2C(C)C)c1 (stereo not given) | 1.02 | –
22 | COCC(=O)Nc1cnn(-c2cccc(C(=O)N3CCCC(COc4ccccc4F)C3)c2)c1 (stereo not given) | 0.709 | –
23 | CSCCC(=O)N(C)C(Cc1ccccc1F)C1CCN(C(=O)/C=C/c2ccccc2)CC1 (stereo not given) | 0.005 | –
24 | CC(C)N(C)Cc1nnnn1CC(=O)N1CCC(N2CCSCC2)CC1 | – | 1.01
25 | COCCn1cnc2cc(NC(=O)C3CCCCC3)cc(C(=O)N(C)C(C)c3cccs3)c21 (stereo not given) | 0.707 | –
26 | Cc1ncc2c(c1CNC(=O)c1ccc3c(c1)OCO3)CCN(C(=O)CCc1c[nH]c3ccccc13)C2 | 0.77 | –
27 | COc1ccc(OC)c(C(=O)N2CCC(n3nccc3NC(=O)C(C)(C)C)CC2)c1 | – | 1.06
28 | CC(C)(C)C(=O)N1CCC2(CCCN(Cc3cccc(F)c3F)C2=O)C1 (stereo not given) | – | 0.827
29 | COc1cc(C(=O)N2CCCC(N3CCN(c4ccc(F)cc4)CC3)C2)ccc1C (stereo not given) | – | 0.913
30 | CCCC1(C2CCN(C(=O)Cc3ccc(SC)cc3)CC2)NC(=O)N(CCc2ccccn2)C1=O (stereo not given) | 0.982 | –

A few values from the list.
`COC(c1ccc2c(c1)CN(C(=O)c1cccc(Cn3cccn3)c1)CCO2)C1CCCCC1` (stereo not given) | bacterial growth OD600 (polymyxin B 0.75 µg/mL): 0.028
`COCCn1cnc2cc(NC(=O)C3CCCCC3)cc(C(=O)N(C)C(C)c3cccs3)c21` (stereo not given) | bacterial growth OD600 (polymyxin B 0.75 µg/mL): 0.707
